Measurements from doi:10.1101/2021.05.14.443827.

Target: SiiB-3×Flag (Salmonella enterica serovar Typhimurium)
Assay: co-IP

## CheM-HA (from UniProt P02941 1-553)
  binding: binds

No constants are given. Whether binding was seen depends on the method and setting. Binding seen in cells or lysates may run through a third protein. A result given as binding can be weak or reduced; the word gives no strength.
